Variants at the floor of the assay are shown more often than the library holds them.
Assays:
biotinyl-Phe-oxazolone = experiment: self-aminoacylation, catalytic enhancement (BFO) (fold over background); higher = more active; k-Seq, kA / k0A0; sequences stand for … in GGGAAUGGAUCCACAUCUACGAAUUC…UUCACUGCAGACUUGACGAAGCUG
How it was run: (§1)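 Each biotinyl-aminoacyl-oxazolone, at 2–1250 μM, was incubated with mutagenized RNA pools (0.43 μM) carrying a 21-nt variable region. The 50 μL reactions contained HEPES/NaCl/KCl/MgCl2/CaCl2 buffer with 5% acetonitrile at pH 6.9–7.0 and ran for 90 minutes at room temperature. After streptavidin capture, RNA was measured by qPCR in triplicate and by Illumina sequencing, and catalytic enhancement was calculated as median kA over the uncatalyzed rate from a pseudo-first-order fit of per-sequence fraction reacted.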

biotinyl-Ile-oxazolone = experiment: self-aminoacylation, catalytic enhancement (BIO) (fold over background); higher = more active; k-Seq, kA / k0A0; sequences stand for … in GGGAAUGGAUCCACAUCUACGAAUUC…UUCACUGCAGACUUGACGAAGCUG
How it was run: as §1

biotinyl-Leu-oxazolone = experiment: self-aminoacylation, catalytic enhancement (BLO) (fold over background); higher = more active; k-Seq, kA / k0A0; sequences stand for … in GGGAAUGGAUCCACAUCUACGAAUUC…UUCACUGCAGACUUGACGAAGCUG
How it was run: as §1

biotinyl-Trp-oxazolone = experiment: self-aminoacylation, catalytic enhancement (BWO) (fold over background); higher = more active; k-Seq, kA / k0A0; sequences stand for … in GGGAAUGGAUCCACAUCUACGAAUUC…UUCACUGCAGACUUGACGAAGCUG
How it was run: as §1

biotinyl-Met-oxazolone = experiment: self-aminoacylation, catalytic enhancement (BMO) (fold over background); higher = more active; k-Seq, kA / k0A0; sequences stand for … in GGGAAUGGAUCCACAUCUACGAAUUC…UUCACUGCAGACUUGACGAAGCUG
How it was run: as §1

biotinyl-Val-oxazolone = experiment: self-aminoacylation, catalytic enhancement (BVO) (fold over background); higher = more active; k-Seq, kA / k0A0; sequences stand for … in GGGAAUGGAUCCACAUCUACGAAUUC…UUCACUGCAGACUUGACGAAGCUG
How it was run: as §1

Sequence | self-aminoacylation (biotinyl-Phe-oxazolone) | self-aminoacylation (biotinyl-Ile-oxazolone) | self-aminoacylation (biotinyl-Leu-oxazolone) | self-aminoacylation (biotinyl-Trp-oxazolone) | self-aminoacylation (biotinyl-Met-oxazolone) | self-aminoacylation (biotinyl-Val-oxazolone)
AAAUUUGCUAAUAGUCUCAAG [Fam3.1 aminoacylation ribozyme variant] | 2.03 | 1.68 | 1.39 | 1.78 | 1.26 | 1.51
AACUUUACUAAUAGUCGCAAG [Fam3.1 aminoacylation ribozyme variant] | 6.76 | 2.07 | 2.26 | 2.92 | 2.23 | 1.86
AACUUUGCUAAUAGUCGCAAU [Fam3.1 aminoacylation ribozyme variant] | 6.33 | 2.94 | 3.35 | 2.77 | 2.79 | 2.51
AAGAUUGCUAAUAGUAGCAAG [Fam3.1 aminoacylation ribozyme variant] | 0.964 | 1.29 | 0.884 | 1.51 | 0.882 | 0.849
AAGAUUGCUAAUAGUCGCCAG [Fam3.1 aminoacylation ribozyme variant] | 0.817 | 1.39 | 1.39 | 2.02 | 1.15 | 1.57
AAGAUUGCUAAUUGUCGCAAG [Fam3.1 aminoacylation ribozyme variant] | 1.82 | 1.87 | 2 | 3.92 | 1.53 | 1.74
AAGCUUGCUACUAGUCGCAAG [Fam3.1 aminoacylation ribozyme variant] | 1.75 | – | – | – | – | 1.83
AAGGUUGAUAAUAGUCGCAAG [Fam3.1 aminoacylation ribozyme variant] | 1.85 | 1.33 | 1.21 | 1.19 | 1.15 | 1.08
AAGGUUGCUAAUUGUCGCAAG [Fam3.1 aminoacylation ribozyme variant] | 1.4 | 1.56 | 1.14 | 2.85 | 1.36 | 1.41
AAGGUUGCUAGUAGUCGCAAG [Fam3.1 aminoacylation ribozyme variant] | 1.77 | 1.18 | 0.971 | 1.3 | 1.3 | 1.07
AAGUAUCCUAAUAGUCGCAAG [Fam3.1 aminoacylation ribozyme variant] | 1.36 | 1.29 | 1.04 | 0.801 | 0.975 | 1.03
AAGUAUGCUAAUAGUCGAAAG [Fam3.1 aminoacylation ribozyme variant] | 15.7 | 1.48 | 1.31 | 4.62 | 1.7 | 1.21
AAGUCUGAUAAUAGUCGCAAG [Fam3.1 aminoacylation ribozyme variant] | 1.08 | 0.778 | 0.984 | 0.95 | 0.84 | 0.936
AAGUCUGCUAAUAGGCGCAAG [Fam3.1 aminoacylation ribozyme variant] | 1.02 | 0.854 | 0.969 | 1.51 | 0.886 | 1.16
AAGUCUGCUAAUAGUCGCCAG [Fam3.1 aminoacylation ribozyme variant] | 1.8 | 1.1 | 1.04 | 3.43 | 1.34 | 1.32
AAGUCUUCUAAUAGUCGCAAG [Fam3.1 aminoacylation ribozyme variant] | 3.19 | 2.06 | 1.83 | 2.07 | 1.56 | 1.52
AAGUGUGCUAAUAGUCACAAG [Fam3.1 aminoacylation ribozyme variant] | 6.87 | 1.41 | 1.22 | 3.91 | 1.82 | 1.35
AAGUGUGCUAAUAGUCGCAAC [Fam3.1 aminoacylation ribozyme variant] | 1.4 | 1.53 | 1.36 | 1.7 | 1.1 | 1.27
AAGUUAGCUAAUAGACGCAAG [Fam3.1 aminoacylation ribozyme variant] | 1.13 | 0.825 | 0.676 | 0.735 | 0.484 | 0.668
AAGUUAGCUAAUAGUCGCCAG [Fam3.1 aminoacylation ribozyme variant] | 1.48 | 1.91 | 1.67 | 3.82 | 2.09 | 1.33
AAGUUAGCUUAUAGUCGCAAG [Fam3.1 aminoacylation ribozyme variant] | 2.88 | 1.8 | 1.48 | 1.9 | 1.43 | 1.56
AAGUUGGCCAAUAGUCGCAAG [Fam3.1 aminoacylation ribozyme variant] | 1.81 | 1.79 | 1.95 | 1.51 | 1.32 | 1.47
AAGUUUCCUAAUAGCCGCAAG [Fam3.1 aminoacylation ribozyme variant] | 0.509 | 1.14 | 1.08 | 0.415 | 1.04 | 0.763
AAGUUUGCGAAUAUUCGCAAG [Fam3.1 aminoacylation ribozyme variant] | 0.916 | 1.54 | 1.72 | – | 1.72 | 1.38
AAGUUUGCUAAGAGUCGCCAG [Fam3.1 aminoacylation ribozyme variant] | 1.21 | 1.25 | 1.27 | – | 1.37 | 1.33
AAGUUUGCUAGUAGUCGCAAA [Fam3.1 aminoacylation ribozyme variant] | 1.07 | 1.2 | 0.751 | – | 1.29 | 1.06
AUUACCCUGGUCAGCGAGCGA [Fam2.1 aminoacylation ribozyme variant] | 1.88 | 1.99 | – | 1.94 | – | –

Sequence | self-aminoacylation (biotinyl-Phe-oxazolone) | self-aminoacylation (biotinyl-Ile-oxazolone) | self-aminoacylation (biotinyl-Leu-oxazolone) | self-aminoacylation (biotinyl-Trp-oxazolone) | self-aminoacylation (biotinyl-Met-oxazolone) | self-aminoacylation (biotinyl-Val-oxazolone)
AUUACGCUGCUCAUCGAGUGA [Fam2.1 aminoacylation ribozyme variant] | 1.22 | 1.53 | 1.82 | – | 1.49 | 1.63
AUUCACCUAAGUCAUCGGGUA [Fam2.2 aminoacylation ribozyme variant] | 1.4 | – | – | – | – | –
AUUCACCUAGCUCAUCGGGGG [Fam2.2 aminoacylation ribozyme variant] | 1.19 | 1.81 | 1.86 | 1.54 | – | 1.79
AUUCACCUAGGUCAUCGGCAG [Fam2.2 aminoacylation ribozyme variant] | 0.706 | 1.23 | – | 1.32 | 1.61 | 1.33
AUUCACCUAGGUCAUCUGGCG [Fam2.2 aminoacylation ribozyme variant] | 1.02 | 1.75 | – | 1.91 | 1.92 | 1.94
AUUCACCUGGGUCAUCGGGCG [Fam2.2 aminoacylation ribozyme variant] | 1.82 | – | – | – | – | –
AUUCAUCUAGCUCAUCGGGUG [Fam2.2 aminoacylation ribozyme variant] | 1.31 | 1.91 | 1.99 | – | – | 1.73
CCACACUCCAGGCAAUCGGUC [Fam1B.1 aminoacylation ribozyme variant] | 1.2 | 1.46 | 1.23 | – | 1.11 | 1.53
CCACACUGCAAGCAAUCGGGC [Fam1B.1 aminoacylation ribozyme variant] | 0.591 | 1.94 | 1.67 | – | 1.56 | –
CCACACUUCAAACAAUCGGGC [Fam1B.1 aminoacylation ribozyme variant] | 1.23 | 1.87 | 1.72 | – | 1.48 | 1.81
CCACACUUCAAGCAAUCGGCG [Fam1B.1 aminoacylation ribozyme variant] | 0.672 | 1.31 | 1.79 | – | – | –
CCACACUUCAAGCAAUGGGCC [Fam1B.1 aminoacylation ribozyme variant] | 0.858 | 1.86 | 1.71 | 1.01 | 1.83 | –
CCACACUUCAAGCAUUCCGUC [Fam1B.1 aminoacylation ribozyme variant] | 1.46 | – | – | – | – | –
CCACACUUGAAGCAAUCGGCC [Fam1B.1 aminoacylation ribozyme variant] | 0.992 | 1.83 | – | – | 1.86 | –
CCAGACUUCGAGCAAUCGGUC [Fam1B.1 aminoacylation ribozyme variant] | 1.27 | 1.67 | 1.59 | 1.63 | 1.34 | –
CGACUUCAAACAACCGGUCUG [Fam1A.1 aminoacylation ribozyme variant] | 1.54 | 1.11 | 1.22 | – | 0.722 | 1.18
CUACUUCAAAGAAUCGGUCUC [Fam1A.1 aminoacylation ribozyme variant] | – | 0.811 | 0.874 | 3.26 | 0.787 | 0.789
CUAGUUCAAACAAUCGGUCCG [Fam1A.1 aminoacylation ribozyme variant] | – | 0.787 | 0.745 | 0.582 | 0.742 | 0.649
CUAGUUCAGACAAUCGGUCUG [Fam1A.1 aminoacylation ribozyme variant] | – | 0.986 | 1.14 | 0.815 | 1.1 | 1.09
CUCCUUCAAACAGUCGGUCUG [Fam1A.1 aminoacylation ribozyme variant] | – | 0.941 | 0.959 | 1.31 | 1.24 | 1.26
CUUUCCCUGGUCAUCGAGUGA [Fam2.1 aminoacylation ribozyme variant] | – | 4.62 | 8.95 | 10.6 | 8.78 | 5.04
GAGUUUGCUAAUAGUAGCAAG [Fam3.1 aminoacylation ribozyme variant] | – | 1.53 | 1.03 | 1.23 | 1.25 | 1.28
GAGUUUGCUGAUAGUCGCAAG [Fam3.1 aminoacylation ribozyme variant] | – | 1.68 | 1.19 | 1.95 | 1.31 | 1.5
GUUACCCUGGUCAUCGAUUGA [Fam2.1 aminoacylation ribozyme variant] | – | 1.38 | 1.6 | 0.875 | 1.48 | 1.24
GUUCACCUAGGUCAUCGGAUG [Fam2.2 aminoacylation ribozyme variant] | – | 0.815 | 0.728 | 0.5 | 0.701 | 0.979
UAGUUUGCUCAUAGUCGCAAG [Fam3.1 aminoacylation ribozyme variant] | – | 1.75 | 1.69 | 1.57 | 1.51 | 1.28
UUACUUCGAACAAUCGGUCUG [Fam1A.1 aminoacylation ribozyme variant] | – | 1.29 | 1.28 | 1.56 | 1.24 | 1.1

Source: the supplement of paper PMC9233669
